The values below are quoted from earlier work in patent US11932845B2, “Microorganisms and methods for production of 4-hydroxybutyrate, 1,4-butanediol and related compounds” (priority 2012, dated 2024).

Read-outs that look alike come from different tables or passages of the source.

The data set deals with NADH dehydrogenases and cytochrome oxidase. To be noted: aerobic growth, cited from earlier work.

B1: NDH-2 (protein, UniProt P00393 2-434, looked up)
Type II NADH:quinone …: TTPLKKIVIVGGGAGGLEMATQLGHKLGRKKKAKITLVDRNHSHLWKPLLHEVATGSLDEGVDALSYLAHARNHGFQFQLGSVIDIDREAKTITIAELRDEKGELLVPERKIAYDTLVMALGSTSNDFNTPGVKENCIFLDNPHQARRFHQEMLNLFLKYSANLGANGKVNIAIVGGGATGVELSAELHNAVKQLHSYGYKGLTNEALNVTLVEAGERILPALPPRISAAAHNELTKLGVRVLTQTMVTSADEGGLHTKDGEYIEADLMVWAAGIKAPDFLKDIGGLETNRINQLVVEPTLQTTRDPDIYAIGDCASCPRPEGGFVPPRAQAAHQMATCAMNNILAQMNGKPLKNYQYKDHGSLVSLSNFSTVGSLMGNLTRGSMMIEGRIARFVYISLYRMHQIALHGYFKTGLMMLVGSINRVIRPRLKLH
With B1, the Concentration was 0.70 ± 0.03 μmol/s/mg of protein (Limited glucose (early stationary)), 0.88 ± 0.01 μmol/s/mg of protein (Standard glucose (early stationary: 8 h)), 1.11 ± 0.06 μmol/s/mg of protein (Standard glucose (exponential: 3 h)) and 0.86 ± 0.03 μmol/s/mg of protein (Standard glucose (exponential: 5 h)).
